Patent publication US20260345561A1, “METHODS AND COMPOSITIONS FOR USE IN TREATING AUTOSOMAL RECESSIVE POLYCYSTIC KIDNEY DISEASE (ARPKD)” (The General Hospital Corporation, priority 2022, published 2026)

System: PKHD1−/− organoids
Conditions: CDH1+ tubules, flow, R-Naproxen 20 μM, 7 days from day 16 (FIG. 5G, 15)
Excerpt: Data in all bar charts and dot plots are expressed as mean±s.d. Statistical analysis was done in GraphPad Prism 9, and statistical significance was attributed to values of P<0.05 as determined by one-way ANOVA with Tukey's multiple-comparisons test unless otherwise noted. Different significance levels (P values) are indicated in each figure with asterisks: *P<0.05, **P<0.01, ***P<0.001, and ****P<0.0001. […] FIG. 1F; n=74 LTL+ tubules with flow, n=66 LTL+ tubules in static culture, n=191 LTL+ tubules treated with forskolin, n=32 CDH1+ tubules with flow, n=27 CDH1+ tubules in static culture, and n=104 CDH1+ tubules treated with forskolin. FIG. 2C; n=16 tubules transfected with siControl, n=17 tubules transfected with siKIF3A. 8 organoids transfected with siControl, and 7 organoids transfected with siKIF3A from 2 independent chips were analyzed in FIG. 2C.

With COc1ccc2cc([C@@H](C)C(=O)O)ccc2c1 [R-Naproxen] the “apical redistribution of actin fiber” value was “ameliorated”.
